# Reference: PubChem BioAssay AID1117361 (Southern Research Institute, 2015)
# The whole screen tested about 3,600 compounds, of which about 900 (25%) were called active. How the calls were made is not given here. Only a part is listed here, and it is no random draw. Entries with a potency or affinity are not part of this list.
# Target: Protein Tat (Human immunodeficiency virus type 1 group M subtype B (isolate HXB2)) (UniProt P04608)
# Assay: inhibitors of Tat binding to TAR RNA, dose response, counter-screen for Vif-APOBEC3G degradation inhibitor project, biochemical, fluorescence polarization, FAM-labeled TAR RNA (AID 1117361)
# Settings: at 100 µM (top of the series)
row,SMILES,inhibition
1,Cn1cccc1/C=C1\C(=O)NC(=O)N(Cc2ccccc2)C1=O,inactive: 75.3%
